Source: US20090087425A1, “Combination of nitroderivatized steroid and bronchodilator for treating respiratory disease” (Topigen Pharmaceuticals Inc., priority 2007, published 2009)
Entries after “also recorded” stand apart in the source; their conditions may differ. At least one compound was matched to its structure with a doubt left.

System: bronchoconstriction induced by histamine
Assay: Histamine-induced bronchoconstriction in conscious guinea-pigs, whole body plethysmography (sGaw)
Format: in vivo, guinea-pig
Details: FIG. 2D; budesonide 0.11 mM; listed as budesonide

Which “% Inhibition” value does the source give for CCCC1O[C@@H]2C[C@H]3[C@@H]4CCC5=CC(=O)C=C[C@]5(C)[C@H]4[C@@H](O)C[C@]3(C)[C@]2(C(=O)CO)O1 (stereo partly shown) [Budesonide, budesonide] here?
Its value is “insignificant reduction of AHR; also recorded: do not significantly reduce AHR”.
